In article PMC3726431:
Results are given in words; binding and its absence hold for the method and conditions named. In cells and extracts the contact can be indirect. Some results given as binding are weak or reduced against the parent protein; the word gives no strength. Tags and fused reporters may be left off the sequences shown.

Protein sequences, listed by entry. Tags and fused reporters are not part of them.
UniProt Q9WVM3: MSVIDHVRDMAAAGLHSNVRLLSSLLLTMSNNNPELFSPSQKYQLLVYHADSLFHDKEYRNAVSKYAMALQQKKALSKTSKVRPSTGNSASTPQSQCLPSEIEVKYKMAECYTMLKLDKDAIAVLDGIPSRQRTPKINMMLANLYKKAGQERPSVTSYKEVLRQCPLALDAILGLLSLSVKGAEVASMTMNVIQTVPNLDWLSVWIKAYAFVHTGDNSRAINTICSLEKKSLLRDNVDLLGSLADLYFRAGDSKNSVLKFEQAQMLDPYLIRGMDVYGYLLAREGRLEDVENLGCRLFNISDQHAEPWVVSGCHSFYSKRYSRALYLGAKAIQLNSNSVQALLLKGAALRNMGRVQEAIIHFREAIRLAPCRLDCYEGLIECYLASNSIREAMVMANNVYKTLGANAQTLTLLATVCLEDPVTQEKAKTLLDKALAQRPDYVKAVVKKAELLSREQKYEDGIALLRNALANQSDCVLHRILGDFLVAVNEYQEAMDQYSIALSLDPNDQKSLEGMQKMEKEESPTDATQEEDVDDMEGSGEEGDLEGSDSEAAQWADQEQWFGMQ

Tests used:
[1] = target: T1, full length IL-17RA (Myc-tagged) (UniProt Q60943); assay: co-IP; HEK293T cells co-transfected with HA-tagged AnapC7 or AnapC5 and a Myc-tagged partner; lysates immunoprecipitated with anti-Myc and immunoblotted for HA or Myc
T1 sequence: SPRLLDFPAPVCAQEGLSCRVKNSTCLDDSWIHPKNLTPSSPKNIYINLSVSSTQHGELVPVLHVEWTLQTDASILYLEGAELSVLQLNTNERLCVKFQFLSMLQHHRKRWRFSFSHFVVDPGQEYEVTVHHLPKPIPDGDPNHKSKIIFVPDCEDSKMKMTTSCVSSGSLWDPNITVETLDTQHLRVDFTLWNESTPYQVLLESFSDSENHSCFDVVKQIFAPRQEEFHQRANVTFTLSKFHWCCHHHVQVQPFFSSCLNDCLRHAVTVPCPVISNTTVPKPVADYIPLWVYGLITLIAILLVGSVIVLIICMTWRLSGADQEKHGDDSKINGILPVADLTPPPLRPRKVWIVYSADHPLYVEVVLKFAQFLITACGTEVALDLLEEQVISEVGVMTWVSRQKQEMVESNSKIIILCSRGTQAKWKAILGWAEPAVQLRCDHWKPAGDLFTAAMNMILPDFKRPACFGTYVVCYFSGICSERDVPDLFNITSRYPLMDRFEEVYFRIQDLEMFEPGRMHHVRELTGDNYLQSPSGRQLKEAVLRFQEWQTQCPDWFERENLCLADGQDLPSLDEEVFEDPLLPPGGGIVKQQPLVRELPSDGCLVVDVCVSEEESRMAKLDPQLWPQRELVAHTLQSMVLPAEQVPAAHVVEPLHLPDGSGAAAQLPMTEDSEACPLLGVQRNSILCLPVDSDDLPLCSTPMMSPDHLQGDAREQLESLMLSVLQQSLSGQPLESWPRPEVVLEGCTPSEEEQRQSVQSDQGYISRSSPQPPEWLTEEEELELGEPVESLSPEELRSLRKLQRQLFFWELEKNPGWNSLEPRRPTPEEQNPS

[2] = target: T2, full length IL-17RC (Myc-tagged) (UniProt Q8K4C2); assay: as above
T2 sequence: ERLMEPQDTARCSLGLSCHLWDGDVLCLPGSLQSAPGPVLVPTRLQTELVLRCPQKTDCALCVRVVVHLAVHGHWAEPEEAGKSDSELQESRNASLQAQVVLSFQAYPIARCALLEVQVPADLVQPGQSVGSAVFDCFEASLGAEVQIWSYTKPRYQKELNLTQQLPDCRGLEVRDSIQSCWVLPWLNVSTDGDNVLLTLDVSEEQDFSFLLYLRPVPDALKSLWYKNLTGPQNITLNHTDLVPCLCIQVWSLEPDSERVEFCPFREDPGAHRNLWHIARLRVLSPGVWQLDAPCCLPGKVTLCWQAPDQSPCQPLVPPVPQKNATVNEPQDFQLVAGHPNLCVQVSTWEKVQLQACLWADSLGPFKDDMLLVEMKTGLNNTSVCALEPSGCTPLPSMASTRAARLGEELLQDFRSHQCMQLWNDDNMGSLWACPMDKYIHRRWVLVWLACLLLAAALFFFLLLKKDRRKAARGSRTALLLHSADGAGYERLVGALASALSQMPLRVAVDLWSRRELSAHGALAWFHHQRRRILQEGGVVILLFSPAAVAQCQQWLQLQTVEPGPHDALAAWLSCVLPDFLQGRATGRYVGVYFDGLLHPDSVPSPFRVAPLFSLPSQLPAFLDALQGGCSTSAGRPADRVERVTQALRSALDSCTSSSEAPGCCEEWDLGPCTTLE

For “AnapC7 (HA-tagged) (from UniProt Q9WVM3 1-565)”, the binding [1] was “binds” and the binding [2] was “binds”.
